The source of these data is the supplement of paper PMC12819154, “High-throughput peptide-centric local stability assay extends protein–ligand identification to membrane proteins, tissues and bacteria” (Nature Structural & Molecular Biology, 2025).

By UniProt entry, the sequences of proteins in these tests, tags left out. Where a name states a change or a piece, a line headed by the entry shows the natural chain unless it says otherwise.
UniProt Q7Z3K6: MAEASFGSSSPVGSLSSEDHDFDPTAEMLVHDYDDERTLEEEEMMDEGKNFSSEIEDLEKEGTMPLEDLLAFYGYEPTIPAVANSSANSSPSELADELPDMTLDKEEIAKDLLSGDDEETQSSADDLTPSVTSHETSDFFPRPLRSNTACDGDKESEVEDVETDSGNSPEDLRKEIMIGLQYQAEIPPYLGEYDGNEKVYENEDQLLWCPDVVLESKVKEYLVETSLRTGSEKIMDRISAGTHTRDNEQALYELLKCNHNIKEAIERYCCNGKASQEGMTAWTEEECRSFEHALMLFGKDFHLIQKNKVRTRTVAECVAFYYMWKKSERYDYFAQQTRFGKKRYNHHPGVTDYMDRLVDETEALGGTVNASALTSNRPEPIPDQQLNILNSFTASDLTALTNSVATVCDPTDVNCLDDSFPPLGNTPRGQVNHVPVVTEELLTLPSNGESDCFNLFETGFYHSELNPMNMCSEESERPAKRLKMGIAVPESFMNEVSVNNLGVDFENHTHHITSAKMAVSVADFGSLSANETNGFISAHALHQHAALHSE
UniProt Q7L5Y9: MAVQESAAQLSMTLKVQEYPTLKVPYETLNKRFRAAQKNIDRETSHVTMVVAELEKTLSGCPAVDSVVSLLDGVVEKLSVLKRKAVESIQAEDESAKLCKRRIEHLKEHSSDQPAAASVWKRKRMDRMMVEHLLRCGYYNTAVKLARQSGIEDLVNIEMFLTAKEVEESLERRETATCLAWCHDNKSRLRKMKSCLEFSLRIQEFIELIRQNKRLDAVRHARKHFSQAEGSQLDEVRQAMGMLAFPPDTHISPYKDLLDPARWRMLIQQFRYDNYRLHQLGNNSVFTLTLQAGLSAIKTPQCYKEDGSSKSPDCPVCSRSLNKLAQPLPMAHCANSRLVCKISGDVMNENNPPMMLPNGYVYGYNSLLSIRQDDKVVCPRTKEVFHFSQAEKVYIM
UniProt Q7Z3V4: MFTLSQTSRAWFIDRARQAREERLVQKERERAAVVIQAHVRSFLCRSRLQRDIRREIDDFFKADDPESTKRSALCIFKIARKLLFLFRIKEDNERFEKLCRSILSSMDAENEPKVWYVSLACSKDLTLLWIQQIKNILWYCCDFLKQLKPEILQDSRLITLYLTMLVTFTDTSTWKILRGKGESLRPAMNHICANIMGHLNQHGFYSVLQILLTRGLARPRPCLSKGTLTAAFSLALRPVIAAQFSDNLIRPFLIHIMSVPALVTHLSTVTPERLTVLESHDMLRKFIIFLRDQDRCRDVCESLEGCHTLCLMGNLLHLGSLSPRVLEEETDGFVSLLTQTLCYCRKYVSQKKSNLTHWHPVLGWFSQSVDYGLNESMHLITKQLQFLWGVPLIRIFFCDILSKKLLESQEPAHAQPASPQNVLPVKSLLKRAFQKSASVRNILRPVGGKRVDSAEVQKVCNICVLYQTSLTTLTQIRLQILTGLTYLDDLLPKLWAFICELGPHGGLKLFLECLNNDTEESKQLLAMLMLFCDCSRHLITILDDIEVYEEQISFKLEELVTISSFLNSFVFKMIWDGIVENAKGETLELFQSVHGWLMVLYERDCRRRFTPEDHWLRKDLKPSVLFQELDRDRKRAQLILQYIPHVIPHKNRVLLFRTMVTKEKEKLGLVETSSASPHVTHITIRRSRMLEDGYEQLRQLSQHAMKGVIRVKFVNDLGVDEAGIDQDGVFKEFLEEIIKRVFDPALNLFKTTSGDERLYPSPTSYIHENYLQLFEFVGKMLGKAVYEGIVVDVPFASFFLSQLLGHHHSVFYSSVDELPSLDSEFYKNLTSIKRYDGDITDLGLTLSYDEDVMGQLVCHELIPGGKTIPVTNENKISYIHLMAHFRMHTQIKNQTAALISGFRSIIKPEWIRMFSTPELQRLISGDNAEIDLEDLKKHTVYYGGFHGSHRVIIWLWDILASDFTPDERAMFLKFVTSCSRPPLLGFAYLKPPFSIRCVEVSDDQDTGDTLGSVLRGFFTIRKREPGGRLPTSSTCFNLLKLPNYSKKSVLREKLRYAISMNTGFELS
UniProt Q6YN16: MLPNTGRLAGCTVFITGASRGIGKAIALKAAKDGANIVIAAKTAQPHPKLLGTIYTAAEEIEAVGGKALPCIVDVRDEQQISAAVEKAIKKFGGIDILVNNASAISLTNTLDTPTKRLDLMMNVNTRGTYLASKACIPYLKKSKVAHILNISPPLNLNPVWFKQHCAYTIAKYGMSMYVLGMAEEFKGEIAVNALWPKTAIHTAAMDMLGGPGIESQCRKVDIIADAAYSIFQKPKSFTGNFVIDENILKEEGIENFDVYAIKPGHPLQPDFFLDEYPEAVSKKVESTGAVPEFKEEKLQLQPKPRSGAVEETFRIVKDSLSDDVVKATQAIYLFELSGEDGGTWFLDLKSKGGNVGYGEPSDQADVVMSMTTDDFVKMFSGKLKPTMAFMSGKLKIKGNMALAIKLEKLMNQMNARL
UniProt Q6ZMT4: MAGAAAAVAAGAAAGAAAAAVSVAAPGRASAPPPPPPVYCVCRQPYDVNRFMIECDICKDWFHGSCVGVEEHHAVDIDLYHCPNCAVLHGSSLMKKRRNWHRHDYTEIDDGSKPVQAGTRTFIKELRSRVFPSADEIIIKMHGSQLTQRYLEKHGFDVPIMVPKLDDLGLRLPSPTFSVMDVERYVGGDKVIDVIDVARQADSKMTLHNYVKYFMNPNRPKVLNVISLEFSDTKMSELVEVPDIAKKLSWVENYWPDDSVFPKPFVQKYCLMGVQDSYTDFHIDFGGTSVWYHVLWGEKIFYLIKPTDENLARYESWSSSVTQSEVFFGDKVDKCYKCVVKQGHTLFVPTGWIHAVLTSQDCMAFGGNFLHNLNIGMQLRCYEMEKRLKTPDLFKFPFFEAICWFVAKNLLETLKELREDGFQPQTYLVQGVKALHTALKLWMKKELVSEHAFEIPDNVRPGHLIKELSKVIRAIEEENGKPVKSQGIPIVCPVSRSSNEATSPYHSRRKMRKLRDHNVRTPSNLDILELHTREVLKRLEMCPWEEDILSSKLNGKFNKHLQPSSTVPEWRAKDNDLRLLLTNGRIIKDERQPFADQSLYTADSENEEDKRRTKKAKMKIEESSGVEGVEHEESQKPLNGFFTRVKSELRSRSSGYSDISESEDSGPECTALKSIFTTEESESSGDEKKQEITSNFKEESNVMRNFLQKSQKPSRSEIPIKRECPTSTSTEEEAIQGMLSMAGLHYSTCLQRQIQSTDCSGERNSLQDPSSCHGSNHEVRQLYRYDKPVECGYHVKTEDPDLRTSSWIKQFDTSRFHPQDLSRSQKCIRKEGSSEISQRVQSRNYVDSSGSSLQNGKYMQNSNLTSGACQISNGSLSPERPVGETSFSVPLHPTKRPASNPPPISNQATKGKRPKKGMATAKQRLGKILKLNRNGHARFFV
UniProt Q86T82: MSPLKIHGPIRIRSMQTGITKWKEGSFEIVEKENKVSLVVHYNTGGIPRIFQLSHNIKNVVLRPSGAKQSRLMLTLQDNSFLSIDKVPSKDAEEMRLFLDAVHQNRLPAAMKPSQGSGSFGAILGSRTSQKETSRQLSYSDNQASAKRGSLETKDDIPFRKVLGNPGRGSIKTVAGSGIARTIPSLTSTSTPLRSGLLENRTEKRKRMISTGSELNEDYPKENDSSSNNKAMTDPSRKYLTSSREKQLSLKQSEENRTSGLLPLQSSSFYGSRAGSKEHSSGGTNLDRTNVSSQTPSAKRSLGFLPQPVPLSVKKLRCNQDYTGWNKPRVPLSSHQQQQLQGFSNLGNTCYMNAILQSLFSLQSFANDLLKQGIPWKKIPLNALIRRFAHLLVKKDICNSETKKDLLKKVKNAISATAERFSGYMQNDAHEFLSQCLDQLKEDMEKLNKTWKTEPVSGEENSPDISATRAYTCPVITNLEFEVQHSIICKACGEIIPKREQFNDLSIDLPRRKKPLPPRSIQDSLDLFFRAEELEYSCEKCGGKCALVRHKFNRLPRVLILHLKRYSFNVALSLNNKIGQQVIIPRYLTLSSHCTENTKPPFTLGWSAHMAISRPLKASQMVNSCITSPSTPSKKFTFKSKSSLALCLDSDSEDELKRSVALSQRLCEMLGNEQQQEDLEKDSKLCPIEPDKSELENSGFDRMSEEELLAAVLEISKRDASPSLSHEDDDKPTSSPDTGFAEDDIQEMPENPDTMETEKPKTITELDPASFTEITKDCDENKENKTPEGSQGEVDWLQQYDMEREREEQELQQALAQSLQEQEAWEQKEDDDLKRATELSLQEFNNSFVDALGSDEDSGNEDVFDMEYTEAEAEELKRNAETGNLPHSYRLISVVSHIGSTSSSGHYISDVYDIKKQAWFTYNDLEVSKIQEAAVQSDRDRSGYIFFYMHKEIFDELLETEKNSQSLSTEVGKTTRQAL
UniProt Q7L591: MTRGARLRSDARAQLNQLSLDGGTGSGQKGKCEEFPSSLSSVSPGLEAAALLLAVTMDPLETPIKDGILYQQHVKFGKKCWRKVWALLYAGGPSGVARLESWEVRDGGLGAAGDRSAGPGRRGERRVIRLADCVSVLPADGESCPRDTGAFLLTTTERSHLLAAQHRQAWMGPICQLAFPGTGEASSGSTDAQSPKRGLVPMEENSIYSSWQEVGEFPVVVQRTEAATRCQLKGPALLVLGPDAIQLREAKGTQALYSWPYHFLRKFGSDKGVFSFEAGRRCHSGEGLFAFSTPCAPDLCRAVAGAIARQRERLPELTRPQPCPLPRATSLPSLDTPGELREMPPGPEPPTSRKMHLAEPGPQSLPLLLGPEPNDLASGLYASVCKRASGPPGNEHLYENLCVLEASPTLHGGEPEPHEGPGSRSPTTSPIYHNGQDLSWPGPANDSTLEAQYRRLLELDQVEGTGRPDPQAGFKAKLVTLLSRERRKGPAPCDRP
UniProt Q7Z7K0: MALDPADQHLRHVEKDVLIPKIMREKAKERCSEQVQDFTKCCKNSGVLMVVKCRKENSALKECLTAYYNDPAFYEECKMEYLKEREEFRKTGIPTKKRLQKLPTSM
UniProt Q7Z4I7: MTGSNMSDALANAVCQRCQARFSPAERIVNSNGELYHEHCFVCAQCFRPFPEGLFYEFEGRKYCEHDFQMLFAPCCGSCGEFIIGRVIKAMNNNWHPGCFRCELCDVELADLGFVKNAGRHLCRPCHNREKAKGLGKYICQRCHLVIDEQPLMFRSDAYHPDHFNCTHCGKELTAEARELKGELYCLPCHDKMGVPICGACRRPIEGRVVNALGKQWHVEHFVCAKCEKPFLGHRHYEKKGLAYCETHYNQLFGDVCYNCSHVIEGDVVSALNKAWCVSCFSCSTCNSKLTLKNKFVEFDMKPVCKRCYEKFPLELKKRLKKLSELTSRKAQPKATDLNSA
UniProt Q86SQ0: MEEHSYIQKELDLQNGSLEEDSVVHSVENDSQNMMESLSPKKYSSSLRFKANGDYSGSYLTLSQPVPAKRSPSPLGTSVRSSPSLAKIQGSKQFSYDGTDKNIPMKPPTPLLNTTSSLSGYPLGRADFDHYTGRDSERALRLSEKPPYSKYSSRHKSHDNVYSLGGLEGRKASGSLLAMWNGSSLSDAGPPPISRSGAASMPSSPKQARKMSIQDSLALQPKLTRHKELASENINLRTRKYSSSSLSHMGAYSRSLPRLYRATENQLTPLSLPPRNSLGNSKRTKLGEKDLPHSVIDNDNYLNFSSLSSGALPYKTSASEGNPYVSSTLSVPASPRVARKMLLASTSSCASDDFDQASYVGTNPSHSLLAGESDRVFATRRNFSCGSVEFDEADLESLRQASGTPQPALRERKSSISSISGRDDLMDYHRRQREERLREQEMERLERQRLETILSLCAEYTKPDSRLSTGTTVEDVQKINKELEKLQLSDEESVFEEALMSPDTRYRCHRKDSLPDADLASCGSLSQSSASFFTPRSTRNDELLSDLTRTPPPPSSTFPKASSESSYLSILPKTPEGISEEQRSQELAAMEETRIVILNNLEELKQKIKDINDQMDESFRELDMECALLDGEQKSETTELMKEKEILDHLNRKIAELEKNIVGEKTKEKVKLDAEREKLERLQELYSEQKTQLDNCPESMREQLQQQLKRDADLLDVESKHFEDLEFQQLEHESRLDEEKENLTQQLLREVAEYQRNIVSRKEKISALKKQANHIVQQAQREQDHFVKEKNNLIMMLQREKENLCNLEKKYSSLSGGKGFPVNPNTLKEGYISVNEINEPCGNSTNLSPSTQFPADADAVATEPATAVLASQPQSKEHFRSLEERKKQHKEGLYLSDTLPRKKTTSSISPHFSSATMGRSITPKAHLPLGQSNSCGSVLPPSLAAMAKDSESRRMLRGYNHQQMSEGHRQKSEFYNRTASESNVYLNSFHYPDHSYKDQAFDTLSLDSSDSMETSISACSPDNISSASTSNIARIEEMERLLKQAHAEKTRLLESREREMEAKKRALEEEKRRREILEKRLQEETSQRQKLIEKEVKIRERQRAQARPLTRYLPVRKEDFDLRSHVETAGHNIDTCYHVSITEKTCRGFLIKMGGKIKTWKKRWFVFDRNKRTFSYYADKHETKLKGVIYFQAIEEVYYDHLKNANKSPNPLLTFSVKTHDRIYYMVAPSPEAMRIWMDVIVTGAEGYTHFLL

The list shows a part of the results. Small differences around the control level are noise.

Compound in the assay: Cc1nc(Nc2ncc(C(=O)Nc3c(C)cccc3Cl)s2)cc(N2CCN(CCO)CC2)n1 [dasatinib]
In words: log2 fold change of tryptic peptide abundance, ligand vs vehicle (limited proteolysis) (log2 ratio); higher = more trypsin-susceptible (destabilized). The conditions noted are these: ligand concentration: 5 uM; sample: K562 cleared lysate.
Regarding “TEDC2 (peptide sequence: LLSVGDGTR, peptide start residue: 157) (UniProt Q7L2K0)”, the log2 fold change was -0.278. Turning to “UniProt Q6ZUT1 (peptide sequence: KMLPSSSSR, peptide start residue: 50)”, the log2 fold change was 0.23. Then “MIER3 (peptide sequence: DNEQALYELLK, peptide start residue: 246) (UniProt Q7Z3K6)”, with 0.159.

For “RSRC2 (peptide sequence: MLWQGKK, peptide start residue: 337) (UniProt Q7L4I2)”, the log2 fold change is -0.343. Take “RAPH1 (peptide sequence: LPVSRHTLK, peptide start residue: 121) (UniProt Q70E73)”: the log2 fold change turned out to be 0.165. With “MAEA (peptide sequence: LAQPLPMAHCANSR, peptide start residue: 324) (UniProt Q7L5Y9)”, the log2 fold change came to 0.125. Turning to “UBE3B (peptide sequence: NILRPVGGK, peptide start residue: 442) (UniProt Q7Z3V4)”, the log2 fold change was 0.165. Next, “HSDL2 (peptide sequence: ALPCIVDVR, peptide start residue: 68) (UniProt Q6YN16)”: -0.079. Next, “NBEAL2 (peptide sequence: VLDQDTDAIAVHVVR, peptide start residue: 372) (UniProt Q6ZNJ1)”: -0.232; “RANBP10 (peptide sequence: AGLGSCSFAR, peptide start residue: 605) (UniProt Q6VN20)”: -0.108. Then “PABPN1 (peptide sequence: LKELQNEVEK, peptide start residue: 136) (UniProt Q86U42)”, with 0.106; and “KANSL1 (peptide sequence: LNLVSSSSDGTCVAARTRPVLSCK, peptide start residue: 577) (UniProt Q7Z3B3)”, with -0.431; and “FGD6 (peptide sequence: ITFCPSR, peptide start residue: 1190) (UniProt Q6ZV73)”, with -0.461. As to “UniProt Q70UQ0 (peptide sequence: GAPAAEPGKR, peptide start residue: 14)”, the log2 fold change was -0.0802. Next, “UniProt Q76M96 (peptide sequence: KHEKLEK, peptide start residue: 539)”: 0.00488; “UniProt Q6ZMT4 (peptide sequence: AIEEENGK, peptide start residue: 474)”: 0.401; “RAB11FIP1 (peptide sequence: KLEEMGLNLR, peptide start residue: 790) (UniProt Q6WKZ4)”: 0.426. Next, “DENND4A (peptide sequence: ACDDKLNKK, peptide start residue: 1231) (UniProt Q7Z401)”: 1.06; “PIK3AP1 (peptide sequence: QTDLEITVPIR, peptide start residue: 670) (UniProt Q6ZUJ8)”: 0.439. Next, “MPRIP (peptide sequence: MEVDRSPGLPMSDLK, peptide start residue: 614) (UniProt Q6WCQ1)”: -0.254; “USP37 (peptide sequence: QLSYSDNQASAK, peptide start residue: 136) (UniProt Q86T82)”: -0.32; “ATG9A (peptide sequence: PGAPETTALHGGFQR, peptide start residue: 769) (UniProt Q7Z3C6)”: 0.449. “UniProt Q7Z4H8 (peptide sequence: LQLVQLSK, peptide start residue: 323)”: the log2 fold change was 0.106. Then “DHRS13 (peptide sequence: LANVLFAR, peptide start residue: 202) (UniProt Q6UX07)”, with -0.206; and “DOK3 (peptide sequence: EMPPGPEPPTSR, peptide start residue: 342) (UniProt Q7L591)”, with 0.365. On to “UniProt Q7L2R6 (peptide sequence: SIHDASLVSTAQR, peptide start residue: 167)”, for which the log2 fold change was -0.124. Regarding “UniProt Q6ZMW2 (peptide sequence: AALVTSNSTHPK, peptide start residue: 228)”, the log2 fold change was -0.129.

For “SETX (peptide sequence: LCTCTEPIR, peptide start residue: 1226) (UniProt Q7Z333)”, the log2 fold change is -0.501. Next, “LARP4 (peptide sequence: GTGLNPNAK, peptide start residue: 12) (UniProt Q71RC2)”: 0.235; “UniProt Q7Z3J2 (peptide sequence: LNQLSVNLWHLAQR, peptide start residue: 909)”: -0.249. Next, “BCDIN3D (peptide sequence: KVLLSSFLSQFGR, peptide start residue: 143) (UniProt Q7Z5W3)”: 0.431. Next, “UniProt Q7Z3E2 (peptide sequence: TLCQPNEHNNR, peptide start residue: 52)”: 0.431. On to “RAI1 (peptide sequence: TPAFSPFVR, peptide start residue: 1592) (UniProt Q7Z5J4)”, for which the log2 fold change is -0.297. On to “UniProt Q6XQN6 (peptide sequence: LTEDPEKQTLPGSK, peptide start residue: 408)”, for which the log2 fold change is -0.541.

In the case of “MICAL3 (peptide sequence: SPQDEGLHLLKPLSIPKR, peptide start residue: 1371) (UniProt Q7RTP6)”, the log2 fold change was -0.703. Regarding “CMC1 (peptide sequence: HVEKDVLIPK, peptide start residue: 12) (UniProt Q7Z7K0)”, the log2 fold change is -0.402. Next, “UniProt Q7Z4I7 (peptide sequence: QWHVEHFVCAK, peptide start residue: 211)”: -0.587; “PHLDB2 (peptide sequence: LREQEMER, peptide start residue: 601) (UniProt Q86SQ0)”: -0.164.
